Test results reported in patent US11384071B2, “Inhibitors of mechanotransduction to treat pain and modulate touch perception” (Max-Delbrück-Centrum für Molekulare Medizin in der …, priority 2016, dated 2022).
Some entries share one result that the patent states for a list of compounds.

Tested on: mechanically gated currents in mechanoreceptors
Test: Pillar array analysis of mechanically gated currents in DRG mechanoreceptors
Assay type: cell-based, mouse
Description: HEK-293 cells (passage numbers 4-20) were cultured in DMEM plus 10% fetal calf serum (FCS). Neuro2A (N2A) cells were cultured in DMEM/Opti-MEM media plus 10% FCS.—Sensory DRG neurons were isolated from 4 week old Mus musculus (C57Bl/6). Approximately 20 ganglia were collected from each mouse and individual cells were isolated by treating ganglia with […] collagenase IV for 30 min, followed by 1 ml of 0.05% trypsin, in PBS, for 5-20 min at 37° C. […]
Briefly, elastomeric pillar arrays of defined dimensions were cast in PDMS with an elasticity of 2 MPa. Cells cultured on these arrays were monitored using whole-cell patch-clamp whilst a glass probe was used to apply repeated deflections (of differing magnitudes) to an individual pilus directly beneath the cell. Images were obtained of the pilus before and after deflection and images were analyzed off-line to determine the exact deflection for each data point. […] Images were analyzed off-line using Igor software (WaveMetrics, USA). […] A power analysis was used to determine that moderate to strong effects between samples could be detected with a sample size >4. […] For quantitative analysis of mechanosensitivity we measured responses in the most sensitive sub-population of mechanoreceptors, previously defined as Typell mechanoreceptors (Poole et al., 2014).

Structure (SMILES)	deflections at which significant mechanically gated currents were observed in treated cells
Cc1ccnc(NC(=O)CSc2nnc3c4ccccc4n(Cc4ccccc4)c3n2)c1 [OB-2]	exceeded 100 nm
CCOC(=O)c1c(-c2ccccc2)oc2ccc(Oc3c([N+](=O)[O-])ncn3C)cc12 [OB-1, Ethyl 5-((1-methyl-4-nitro-1H-imidazol-5-yl)oxy)-2-phenylbenzofuran-3-carboxylate]	exceeded 100 nm
